From PMC3694902
No constants are given. Whether binding was seen depends on the method and setting. Binding seen in cells or lysates may run through a third protein. Binding can be weak; no strength is given.

Amino acid sequences for entries named in this document (tags omitted). A change or cut given only in a name is not applied to a line headed by its entry. Chains listed by the source or under a name are the forms on record and can include a tag or linker.
UniProt Q9H2X6: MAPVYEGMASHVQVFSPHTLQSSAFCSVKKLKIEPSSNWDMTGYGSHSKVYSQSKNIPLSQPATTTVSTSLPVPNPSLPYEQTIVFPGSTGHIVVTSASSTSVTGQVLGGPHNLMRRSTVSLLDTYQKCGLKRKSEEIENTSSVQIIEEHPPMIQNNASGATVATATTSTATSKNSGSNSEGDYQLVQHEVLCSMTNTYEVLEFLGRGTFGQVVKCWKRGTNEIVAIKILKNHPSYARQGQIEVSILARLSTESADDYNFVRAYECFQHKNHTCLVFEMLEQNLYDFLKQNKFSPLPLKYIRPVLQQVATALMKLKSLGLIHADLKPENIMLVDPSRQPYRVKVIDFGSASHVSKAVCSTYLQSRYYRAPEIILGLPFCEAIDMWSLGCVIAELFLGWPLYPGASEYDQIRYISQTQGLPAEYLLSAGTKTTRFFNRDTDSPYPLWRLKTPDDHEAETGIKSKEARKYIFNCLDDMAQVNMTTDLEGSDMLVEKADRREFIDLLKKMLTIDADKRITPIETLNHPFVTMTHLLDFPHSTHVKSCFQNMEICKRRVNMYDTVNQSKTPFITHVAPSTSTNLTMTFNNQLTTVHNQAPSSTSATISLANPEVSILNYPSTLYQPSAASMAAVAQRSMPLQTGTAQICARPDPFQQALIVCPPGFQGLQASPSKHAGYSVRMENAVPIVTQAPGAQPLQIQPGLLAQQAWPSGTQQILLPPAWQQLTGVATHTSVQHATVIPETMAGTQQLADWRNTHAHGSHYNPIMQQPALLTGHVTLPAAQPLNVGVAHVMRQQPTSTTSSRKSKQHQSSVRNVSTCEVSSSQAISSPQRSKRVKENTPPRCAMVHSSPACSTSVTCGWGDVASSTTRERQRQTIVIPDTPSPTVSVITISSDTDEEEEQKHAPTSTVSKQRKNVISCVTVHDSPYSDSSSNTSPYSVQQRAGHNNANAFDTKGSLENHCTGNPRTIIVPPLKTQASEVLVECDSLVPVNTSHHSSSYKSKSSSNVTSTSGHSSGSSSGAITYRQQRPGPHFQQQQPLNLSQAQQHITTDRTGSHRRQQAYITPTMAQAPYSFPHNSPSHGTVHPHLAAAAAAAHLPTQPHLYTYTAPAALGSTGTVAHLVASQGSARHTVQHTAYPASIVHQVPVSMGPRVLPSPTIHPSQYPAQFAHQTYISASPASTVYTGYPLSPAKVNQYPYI
UniProt O35625: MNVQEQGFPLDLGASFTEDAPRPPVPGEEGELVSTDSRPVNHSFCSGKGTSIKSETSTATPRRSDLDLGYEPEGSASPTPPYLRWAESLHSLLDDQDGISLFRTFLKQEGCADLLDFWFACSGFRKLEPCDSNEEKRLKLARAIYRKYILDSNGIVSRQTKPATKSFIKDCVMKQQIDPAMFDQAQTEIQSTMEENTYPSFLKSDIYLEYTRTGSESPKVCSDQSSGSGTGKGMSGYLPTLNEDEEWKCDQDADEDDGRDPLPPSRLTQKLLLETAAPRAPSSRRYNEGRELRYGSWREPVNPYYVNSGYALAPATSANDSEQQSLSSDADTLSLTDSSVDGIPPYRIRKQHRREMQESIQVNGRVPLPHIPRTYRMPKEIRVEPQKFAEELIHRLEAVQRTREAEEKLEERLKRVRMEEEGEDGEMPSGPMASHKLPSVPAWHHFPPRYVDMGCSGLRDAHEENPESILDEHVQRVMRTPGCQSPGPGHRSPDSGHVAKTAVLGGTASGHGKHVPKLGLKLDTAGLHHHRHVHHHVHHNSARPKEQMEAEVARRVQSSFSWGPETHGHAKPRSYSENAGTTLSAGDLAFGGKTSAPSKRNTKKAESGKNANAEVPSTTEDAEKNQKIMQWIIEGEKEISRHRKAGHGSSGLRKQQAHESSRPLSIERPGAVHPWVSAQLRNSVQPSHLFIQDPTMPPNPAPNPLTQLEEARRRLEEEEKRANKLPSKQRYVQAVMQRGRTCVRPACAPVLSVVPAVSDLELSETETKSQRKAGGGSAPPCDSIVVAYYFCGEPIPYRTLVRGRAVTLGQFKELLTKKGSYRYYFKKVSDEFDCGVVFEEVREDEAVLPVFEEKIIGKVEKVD
Myc-MDM2 (Q00987-11, form named): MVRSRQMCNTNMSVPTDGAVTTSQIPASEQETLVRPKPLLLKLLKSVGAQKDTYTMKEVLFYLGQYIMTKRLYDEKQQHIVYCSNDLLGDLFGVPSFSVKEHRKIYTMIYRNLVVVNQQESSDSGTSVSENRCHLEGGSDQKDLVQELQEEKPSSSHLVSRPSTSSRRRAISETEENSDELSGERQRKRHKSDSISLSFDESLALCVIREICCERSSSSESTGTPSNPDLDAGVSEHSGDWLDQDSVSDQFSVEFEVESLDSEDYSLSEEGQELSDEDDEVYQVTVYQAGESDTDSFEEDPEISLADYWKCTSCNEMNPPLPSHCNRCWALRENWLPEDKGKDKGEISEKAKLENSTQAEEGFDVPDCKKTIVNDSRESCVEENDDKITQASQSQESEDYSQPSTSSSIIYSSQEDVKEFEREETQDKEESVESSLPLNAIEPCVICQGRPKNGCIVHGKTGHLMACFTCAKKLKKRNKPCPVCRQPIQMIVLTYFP

Target: HIPK2Δp53 (UniProt Q9H2X6)
Assay: co-IP; HEK 293T cells co-transfected with HIPK2Δp53, Axin and MDM2 or MDM2 (C464A) in different combinations; immunoprecipitation and western blot (Figure 5C); which protein was precipitated is not told

| Substance | binding |
| --- | --- |
| Axin (untagged), expressed in HEK 293T cells (from UniProt O35625 1-863) | binds |
| Myc-MDM2 (from UniProt Q00987-11 1-497) | binds |
